Laboratory results: PubChem BioAssay AID1259254 (NCATS, 2017)

Purpose: 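Finding genes that stop cells copying their DNA twice in one cycle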 (primary screen)
Cell system: human HCT116 colorectal cancer cells
Reagents: single siRNA against human genes
Time to read-out: 3 days
Measured: 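Imaged Hoechst DNA stain sorts each cell into a cycle phase by DNA amount; per plate, G2 fraction set to 0% for non-targeting and 100% for GMNN siRNA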
Reading the numbers: G2 robust z-score and G2 cells, % of GMNN control: higher = more G2 cells, more excess DNA replication; raw share of cells in G2: higher = larger share of cells with G2 DNA content
Hit rule: 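An siRNA counts as active if its G2 robust z-score lies at least 5 MADs above the screen median; here such calls match roughly 38% of GMNN control or more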
The whole screen tested about 59,000 reagents; below is an unselected part. About 1,550 of all reagents (2.6%) count as active. 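G2 share is only a proxy for re-replication; each gene was hit by three separate siRNAs, and active genes were retested.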 Raw values vary from plate to plate and are shown uncorrected. Reagents against one gene are numbered here. The record does not give: the amount of reagent.

The first 3 records as a preview:
gene knocked down,siRNA no.,G2 robust z-score,"G2 cells, % of GMNN control",raw share of cells in G2 (%),call
SEC62,1,0.406,5.83,7.72,inactive
SEC62,2,2.25,18.8,11.4,inactive
SEC62,3,1.61,14.3,8.41,inactive

Main list, from the start:
gene knocked down,siRNA no.,G2 robust z-score,"G2 cells, % of GMNN control",raw share of cells in G2 (%),call
SEC62,1,0.406,5.83,7.72,inactive
SEC62,2,2.25,18.8,11.4,inactive
SEC62,3,1.61,14.3,8.41,inactive
MAGI1,1,-1.35,-6.57,3.55,inactive
MAGI1,2,-0.169,1.78,5.84,inactive
MAGI1,3,3.22,25.6,11.9,inactive
GNPAT,1,1.08,10.6,8.98,inactive
GNPAT,2,-0.353,0.483,4.76,inactive
GNPAT,3,3.79,29.6,15.3,inactive
DCHS1,1,0.485,6.38,6.99,inactive
DCHS1,2,-1.89,-10.4,1.63,inactive
DCHS1,3,-0.31,0.785,4.89,inactive
LURAP1,1,-0.629,-1.46,3.06,inactive
LURAP1,2,1.75,15.3,9.21,inactive
LURAP1,3,-1.1,-4.76,1.5,inactive
KLF6,1,-0.101,2.26,4.36,inactive
KLF6,2,1.95,16.7,12.7,inactive
KLF6,3,1.21,11.5,7.28,inactive
RNF111,1,0.172,4.18,7.85,inactive
RNF111,2,-0.328,0.661,4.49,inactive
RNF111,3,1.5,13.5,8.98,inactive
GPKOW,1,0.824,8.77,10.1,inactive
GPKOW,2,1.94,16.6,9.43,inactive
GPKOW,3,-0.491,-0.49,4.02,inactive
MOGS,1,-0.293,0.909,5.98,inactive
MOGS,2,2.31,19.2,10.8,inactive
MOGS,3,-0.507,-0.597,4.04,inactive
MPDU1,1,0.926,9.48,9.62,inactive
MPDU1,2,1.67,14.7,10.1,inactive
MPDU1,3,-0.123,2.1,4.17,inactive
NUP160,1,2.12,17.9,9.99,inactive
NUP160,2,0.82,8.74,9.88,inactive
NUP160,3,2.97,23.8,12.1,inactive
NFKB1,1,0.0586,3.38,4.8,inactive
NFKB1,2,0.0946,3.63,6.55,inactive
NFKB1,3,2.23,18.7,9.88,inactive
TTBK2,1,2.82,22.8,12.7,inactive
TTBK2,2,-1.18,-5.34,3.25,inactive
TTBK2,3,-0.588,-1.17,3.31,inactive
CHMP1B,1,-0.597,-1.23,3.86,inactive
CHMP1B,2,0.816,8.71,8.62,inactive
CHMP1B,3,-0.519,-0.687,2.81,inactive
MARCHF5,1,0.204,4.4,7.95,inactive
MARCHF5,2,-0.629,-1.46,3.7,inactive
MARCHF5,3,-0.376,0.32,3.92,inactive
OTULIN-DT,1,0.651,7.55,6.41,inactive
OTULIN-DT,2,0.373,5.59,4.84,inactive
OTULIN-DT,3,-0.92,-3.5,2.27,inactive
VASH2,1,0.274,4.9,3.72,inactive
VASH2,2,3.58,28.2,16.1,inactive
VASH2,3,0.294,5.04,6.51,inactive
MRPL18,1,-0.731,-2.17,2.57,inactive
MRPL18,2,6.71,50.2,23,active
MRPL18,3,0.449,6.13,6.87,inactive
CLCA2,1,-1.1,-4.8,3.54,inactive
CLCA2,2,-0.54,-0.834,4.5,inactive
CLCA2,3,0.157,4.07,5.97,inactive
LTBR,1,1.07,10.5,9.62,inactive
LTBR,2,-0.771,-2.46,4.41,inactive
LTBR,3,-0.901,-3.37,2.08,inactive
CCR1,1,1.67,14.7,9.66,inactive
CCR1,2,0.355,5.46,7.8,inactive
CCR1,3,1.96,16.7,8.4,inactive
SLC75A1,1,-0.555,-0.937,5.29,inactive
SLC75A1,2,2.34,19.4,14.1,inactive
SLC75A1,3,0.112,3.75,5.05,inactive
PLPP2,1,-1.05,-4.42,3.36,inactive
PLPP2,2,0.683,7.77,6.64,inactive
PLPP2,3,-0.378,0.31,3.59,inactive
CLASRP,1,0.491,6.42,7.5,inactive
CLASRP,2,-0.519,-0.684,3.85,inactive
CLASRP,3,2.89,23.3,11.9,inactive
HEATR1,1,5.7,43.1,22.3,active
HEATR1,2,2.06,17.5,14.1,inactive
HEATR1,3,0.657,7.59,7.16,inactive
FAM157A,1,-0.688,-1.87,2.83,inactive
FAM157A,2,-0.771,-2.46,2.01,inactive
FAM157A,3,-0.901,-3.37,2.32,inactive
SPIN4,1,0.318,5.2,6.14,inactive
SPIN4,2,1.16,11.1,6.62,inactive
SPIN4,3,-0.179,1.71,3.2,inactive
SCAI,1,-0.248,1.22,3.64,inactive
SCAI,2,0.00316,2.99,4.73,inactive
SCAI,3,-0.225,1.38,3.58,inactive
DOCK11,1,-0.613,-1.34,5.32,inactive
DOCK11,2,5.14,39.1,19,active
DOCK11,3,0.709,7.95,8.04,inactive
